Results: the supplement of paper PMC9015667
Structures can show the parent of a compound that is named as a salt. Some of the results follow. Many values rest on one well or one pass, so single values are uncertain.

Experiments:
Assay in all cases: reduction in cell viability relative to untreated/vehicle; higher = more growth inhibition
Settings in all cases: 200 nM; 72 h
M229P = test system: M229P (parental melanoma line)
M229R = test system: M229R (matched melanoma line resistant to BRAF inhibitors)
M238P = test system: M238P (parental melanoma line)
M238R = test system: M238R (matched melanoma line resistant to BRAF inhibitors)
M249P = test system: M249P (parental melanoma line)
M249R = test system: M249R (matched melanoma line resistant to BRAF inhibitors)
UACC62P = test system: UACC62P (parental melanoma line)
UACC62R = test system: UACC62R (matched melanoma line resistant to BRAF inhibitors)

Compound	reduction in cell viability (M229P) [%]	reduction in cell viability (M229R) [%]	reduction in cell viability (M238P) [%]	reduction in cell viability (M238R) [%]	reduction in cell viability (M249P) [%]	reduction in cell viability (M249R) [%]	reduction in cell viability (UACC62P) [%]	reduction in cell viability (UACC62R) [%]
Cc1cc(-c2ccc(CC(=O)Nc3ccc(-c4cccnc4)cc3)cc2)ccn1	< 0	< 0	< 0	< 0	< 0	< 0	< 0	< 0
Cc1cc(Nc2ncc3c(n2)N(C)C(=O)N(c2cc(NC(=O)c4cccc(C(F)(F)F)c4)ccc2C)C3)n(C)n1 [Pluripotin]	87.8	61.5	86.9	85.6	61.6	66.5	99.1	89.9
COc1cc2ncnc(Nc3cccc(Cl)c3)c2cc1OC	< 0	< 0	< 0	< 0	< 0	< 0	< 0	< 0
Clc1ccc(CCC(Cn2ccnc2)Sc2c(Cl)cccc2Cl)cc1 (stereo not given) [Butoconazole nitrate]	< 0	< 0	< 0	< 0	< 0	< 0	< 0	< 0
CC1=C(CC(=O)O)c2cc(F)ccc2/C1=C\c1ccc([S+](C)[O-])cc1 (stereo not given) [Sulindac]	< 0	< 0	< 0	< 0	< 0	< 0	< 0	< 0
O=C(O)CCCCC(CCSCc1ccccc1)SCc1ccccc1 (stereo not given)	< 0	< 0	< 0	< 0	< 0	0.09	14.1	< 0
CN(C)c1nc(Cc2ccc(NC(=O)c3ccc(C(F)(F)F)cc3)cc2)nc(N(C)C)c1CC(=O)O	< 0	< 0	< 0	< 0	< 0	< 0	< 0	< 0
CCCc1cc(=O)[nH]c(=S)[nH]1 [Propylthiouracil]	< 0	< 0	< 0	< 0	< 0	< 0	< 0	< 0
C=CC(=O)Nc1cc(NC(=O)c2ccc(C)c(NC(=O)c3ccno3)c2)cc(C(F)(F)F)c1	< 0	< 0	< 0	< 0	< 0	< 0	< 0	< 0
CC(C)NC[C@@H](C(=O)N1CCN(c2ncnc3c2[C@H](C)C[C@H]3O)CC1)c1ccc(Cl)cc1	< 0	31.1	< 0	< 0	< 0	< 0	< 0	< 0
CCNC(=O)Nc1ccc(Oc2ncnc(N)c2/C=N/OC)cc1Cl	< 0	< 0	< 0	< 0	< 0	< 0	15.1	17.2
CCCCCCCCCC(=O)N[C@@H](Cc1c[nH]c2ccccc12)C(=O)N[C@H](CC(N)=O)C(=O)N[C@@H](CC(=O)O)C(=O)N[C@@H]1C(=O)NCC(=O)N[C@@H](CCCN)C(=O)N[C@@H](CC(=O)O)C(=O)N[C@H](C)C(=O)N[C@@H](CC(=O)O)C(=O)NCC(=O)N[C@H](CO)C(=O)N[C@@H]([C@H](C)CC(=O)O)C(=O)N[C@@H](CC(=O)c2ccccc2N)C(=O)O[C@@H]1C [Daptomycin]	< 0	< 0	< 0	< 0	< 0	< 0	< 0	< 0
COc1cc2nc(N3CCCN(C)CC3)nc(NC3CCN(Cc4ccccc4)CC3)c2cc1OC	6.98	4.53	< 0	< 0	< 0	< 0	< 0	< 0
NCCc1ccc(O)c(O)c1 [Dopamine HCl]	< 0	< 0	< 0	< 0	< 0	< 0	7.05	< 0
CCCC1O[C@@H]2C[C@H]3[C@@H]4CCC5=CC(=O)C=C[C@]5(C)[C@H]4[C@@H](O)C[C@]3(C)[C@]2(C(=O)CO)O1 (stereo not given in full) [Budesonide]	< 0	< 0	< 0	< 0	< 0	< 0	< 0	< 0
Cc1cc(NS(=O)(=O)c2ccc(N)cc2)no1 [Sulfamethoxazole]	< 0	< 0	< 0	< 0	< 0	< 0	< 0	< 0
CCN[C@H]1C[C@H](C)S(=O)(=O)c2sc(S(N)(=O)=O)cc21 [Dorzolamide hydrochloride]	< 0	< 0	< 0	< 0	< 0	< 0	< 0	< 0
Cc1cnc(Nc2ccc(N3CCN(C)CC3)cc2)nc1Nc1cccc(S(=O)(=O)NC(C)(C)C)c1	< 0	< 0	17.1	< 0	< 0	4.95	15.8	11.1
CN1CCC(=C2c3ccccc3CCc3sccc32)CC1 [Pizotifen]	< 0	< 0	< 0	< 0	< 0	8.38	< 0	< 0
CN1CCN(c2nc(C3=C(c4c[nH]c5ccccc45)C(=O)NC3=O)c3ccccc3n2)CC1 [Sotrastaurin]	< 0	< 0	< 0	< 0	< 0	< 0	< 0	< 0

In the list so far, these have a thiophene ring, fused or not:
Compound	reduction in cell viability (M229P) [%]	reduction in cell viability (M229R) [%]	reduction in cell viability (M238P) [%]	reduction in cell viability (M238R) [%]	reduction in cell viability (M249P) [%]	reduction in cell viability (M249R) [%]	reduction in cell viability (UACC62P) [%]	reduction in cell viability (UACC62R) [%]
CCN[C@H]1C[C@H](C)S(=O)(=O)c2sc(S(N)(=O)=O)cc21 [Dorzolamide hydrochloride]	< 0	< 0	< 0	< 0	< 0	< 0	< 0	< 0
CN1CCC(=C2c3ccccc3CCc3sccc32)CC1 [Pizotifen]	< 0	< 0	< 0	< 0	< 0	8.38	< 0	< 0
